# Library screening results

Protein sequences, listed by entry. Tags and fused reporters are not part of them.
UniProt E9BF75, entry or part of it: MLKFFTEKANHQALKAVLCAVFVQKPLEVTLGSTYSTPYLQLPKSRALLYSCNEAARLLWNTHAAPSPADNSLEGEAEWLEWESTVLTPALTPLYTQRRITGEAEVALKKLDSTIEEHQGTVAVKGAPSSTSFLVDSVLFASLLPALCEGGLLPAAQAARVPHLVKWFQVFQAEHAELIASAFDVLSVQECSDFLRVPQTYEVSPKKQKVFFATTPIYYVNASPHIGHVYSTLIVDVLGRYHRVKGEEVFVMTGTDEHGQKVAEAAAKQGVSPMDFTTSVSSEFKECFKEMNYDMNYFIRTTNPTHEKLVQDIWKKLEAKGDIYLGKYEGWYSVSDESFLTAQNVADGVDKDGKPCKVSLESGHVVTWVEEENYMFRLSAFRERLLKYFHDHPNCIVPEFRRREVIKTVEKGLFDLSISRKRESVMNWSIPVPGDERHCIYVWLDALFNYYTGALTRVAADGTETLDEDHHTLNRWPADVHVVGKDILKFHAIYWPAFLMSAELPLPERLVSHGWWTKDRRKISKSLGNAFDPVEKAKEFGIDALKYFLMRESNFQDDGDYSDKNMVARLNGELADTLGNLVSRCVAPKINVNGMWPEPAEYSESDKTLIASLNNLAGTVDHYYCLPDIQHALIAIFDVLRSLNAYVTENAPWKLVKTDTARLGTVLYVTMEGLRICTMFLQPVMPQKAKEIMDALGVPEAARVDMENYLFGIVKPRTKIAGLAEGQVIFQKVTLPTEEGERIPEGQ

Measurements from “University of Dundee, Small-Polar-MMV Screening Library” (2021), ChEMBL document CHEMBL3988442.

Mtb heat-shock: 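Assay on Mycobacterium tuberculosis, filed only as a heat shock assay from Cornell; the read-out is not stated. The concentration is filed as 10 mM, unlikely as a test dose, so the dose is not known. Direction is inferred from retests: higher values go with stronger inhibition. About 69,000 compounds were tested under these conditions; 1.4% (about 930) showed 50% or more at least once.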
LdMetRS: 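Primary screen of methionyl-tRNA synthetase; the read-out is not stated. Target: Methionyl-tRNA synthetase (putative), Leishmania donovani (UniProt E9BF75). The test concentration is not given. Values are per cent inhibition. About 68,000 compounds were tested under these conditions; 0.035% (about 24) showed 50% or more at least once.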

All values are in %. How 0% and 100% were set is not recorded. Most values in the screen are low, and negative values occur. This is an unselected part of the compounds tested. A dash means the value is not listed here; it may have been measured.

SMILES	Mtb heat-shock	LdMetRS
CN(C)c1cc(NCc2cnc3n2CCN(CC2CC2)CC3)ncn1.O=C(O)C(F)(F)F	-25.23%	-
OCC1(CC2CC2)CCCN(Cc2cnc(C3CCCCC3)nc2)C1 (stereo not given)	-30.96%	11.78%
CCC(=O)NCC(=O)NC(Cc1ccccc1)c1sccc1C (stereo not given)	-1.708%	3.621%
CCCc1nnc(SCc2cc(=O)n3c4c(sc3n2)CCCC4)[nH]1	6.496%	19.38%
O=C(CCc1ccc(Cl)s1)N1CCCC(N2CCNC2=O)C1 (stereo not given)	-5.827%	20.41%
CN(C)c1cc2c(nn1)CCN(C(=O)c1cc3c(s1)CCOC3)C2	-17.89%	8.741%
CC(=O)c1ccc(N2CCC3(CCC(=O)N(CCCO)C3)CC2)nc1	-1.799%	7.521%
CCOc1ccc(NC2CCN(C)C2=O)cn1 (stereo not given)	7.309%	18.18%
O=S(=O)(c1ccc(F)cc1)N1CCN(CCCn2ccnc2)CC1	-8.693%	10.68%
CCc1cccc(-n2nnc(C(=O)O)c2-c2ccncc2)c1	9.443%	5.248%
Cc1ccc(CN2CC[C@@H](NS(C)(=O)=O)[C@@H]2Cc2ccncc2)o1.O=C(O)C(F)(F)F.O=C(O)C(F)(F)F	-12.09%	-
Cn1cc(CN2CC[C@H]3[C@H]2CC(=O)N3Cc2ccncc2)cn1	-	13.78%
O=C(NCc1ccccc1CN1CCCC1=O)Nc1nncs1	-5.715%	5.307%
Cc1cccc(-n2ncc3c2CCCC3NCc2cccc(O)c2)c1C (stereo not given)	20.44%	15.23%
Cc1ccc(CN2CCn3c(CN4CCN(C)CC4)cnc3C2C)s1 (stereo not given)	-	4.569%
COc1cc2nc3n(c(=O)c2cc1OC)CCN(C(C)=O)CC3	-12.83%	12.67%
CN(C)CCNC(=O)c1nc2c(o1)CN(c1ncccn1)C2	-8.521%	17.75%
O=C(c1cnc(O)cn1)N1C[C@@H]2CC[C@H](C1)N(Cc1ccccc1)C2	-	14.72%
CSc1ccc(CNC(c2ccccc2F)c2nccn2C)cc1.Cl (stereo not given)	112.7%	-
CCN(CC1CN(Cc2cccc(C#N)c2)CCO1)c1cccnn1 (stereo not given)	-21.67%	15.38%
CC(=O)Nc1ccc2c(c1)C1(CCOCC1)C(=O)N2c1ccsc1	3.342%	6.62%
Cl.Cn1cc(CN2CCN(CC3(c4ccccc4)CC3)CC2)cn1	-7.6%	-
Cc1cc(C(=O)N(CC(C)C)CC(O)c2ccc(F)cc2)[nH]n1 (stereo not given)	-12.2%	12.32%
CC1CS(=O)(=O)CCN1Cc1ccccc1N(C)C (stereo not given)	-12.41%	14.76%
COCC(NC(=O)c1cnn(C)c1)c1cccc(C(F)(F)F)c1 (stereo not given)	0.3333%	4.433%
O=C(COc1coc(CN2CCCCCC2)cc1=O)c1ccccc1	-7.898%	4.93%
CC(=O)N1CC[C@H]2OCC[C@@H](C(=O)N3CCCCO3)[C@@H]2C1	-	14.52%
COC(=O)CCNC(=O)c1nc(NS(=O)(=O)c2ccccc2)sc1C	15.26%	8.009%
Cc1nc2cc(CNC(=O)C3CC(=O)N(CCN(C)C)C3)ccc2n1C (stereo not given)	-15.4%	15.25%
O=C1CC[C@@H]2[C@@H](CCN2C(=O)C2CCOCC2)N1CC1CC1	-	10.78%
COCC(=O)N[C@H](C)c1c(-c2ccc(OC)cc2)noc1C(=O)O	-12.43%	5.085%
Clc1snnc1CN1CCN(c2nccs2)CC1	8.597%	14.24%
Cc1ccc(F)c(OC2CCCN(c3cnn(C)c3)C2=O)c1 (stereo not given)	4.764%	13.49%
CN1CCOC(CNCCOc2ccc(C#N)cc2)C1 (stereo not given)	-25.39%	-2.527%
Cc1cc(NC(=O)CN2CCn3c(C)nnc3C2)no1	9.914%	8.591%
Cn1ccc2ccnc(CC3CN(C(=O)C4CCC(F)(F)CC4)C3)c21	-3.892%	21.58%
Cc1cc(C)n(CC2CCCCN2C(=O)c2sccc2C#N)n1 (stereo not given)	1.949%	8.711%
O=S1(=O)COCCN1Cc1ccc(F)cc1Cl	15.47%	12.96%
CC(C)(C)Cc1noc2ncc(C(=O)N3CCC3)cc12	11.96%	5.208%
CC(C)Nc1ncc(-c2ccncc2)c([C@@H]2CCCO2)n1	4.478%	10.76%
CCS(=O)(=O)N1CCN(C(C)c2ncc(-c3ccccc3)o2)CC1 (stereo not given)	-19.06%	17.96%
CCOCc1cnc2n1CCN(Cc1scnc1C)C2C.O=C(O)C(F)(F)F (stereo not given)	-1.717%	-
Cc1ccnn1CCC(=O)N1C[C@H]2CC[C@@H]1CN(CC(=O)N(C)C)C2	-	-0.7117%
CCc1nccn1C1CCCN(C(=O)c2csc(C3CC3)n2)C1 (stereo not given)	-6.586%	19.32%
CCCn1ncc(-c2ccnc(N[C@@H]3C[C@@H]4CC[C@H]3C4)n2)c1C	-	12.2%
COCCN1CCCC2(CCN(c3cc(C)c(C#N)c(C)n3)C2)C1=O (stereo not given)	-15.94%	7.43%
CCN(Cc1cccc2c1OCCO2)C(=O)NC(C)(C)C	-4.523%	10.64%
CCC(C(=O)NC(C)(C)C)n1cccc(OC)c1=O (stereo not given)	-8.231%	3.495%
Cc1nsc(NC(=O)NC2(CN3CCCCC3)CCCCC2)n1	2.475%	7.829%
Cc1ccc(C(=O)N(CC(=O)O)CC(C)C)cc1F	0.1699%	9.686%
CNC(=O)c1cnc2c(C)csc2c1	48.46%	5.278%
Cc1cc(C)n(C2CCCN(C(=O)Cc3cn4ccsc4n3)C2)n1 (stereo not given)	9.447%	18.7%
O=C1CCN(CCCS(=O)(=O)c2ccc(Cl)cc2)CCN1	-6.028%	8.122%

For reference, 3 entries once more:

For Cc1cccc(-n2ncc3c2CCCC3NCc2cccc(O)c2)c1C (stereo not given) the result was Mtb heat-shock: 20.44%; LdMetRS: 15.23%.
For Cc1nsc(NC(=O)NC2(CN3CCCCC3)CCCCC2)n1 the result was Mtb heat-shock: 2.475%; LdMetRS: 7.829%.
For CN(C)c1cc2c(nn1)CCN(C(=O)c1cc3c(s1)CCOC3)C2 the result was Mtb heat-shock: -17.89%; LdMetRS: 8.741%.